# From PMC7862700
# Protein sequences, listed by entry. Tags and fused reporters are not part of them. Lines headed by an entry give the natural chain unless they say otherwise; changes in a name come on top.
# UniProt O43186: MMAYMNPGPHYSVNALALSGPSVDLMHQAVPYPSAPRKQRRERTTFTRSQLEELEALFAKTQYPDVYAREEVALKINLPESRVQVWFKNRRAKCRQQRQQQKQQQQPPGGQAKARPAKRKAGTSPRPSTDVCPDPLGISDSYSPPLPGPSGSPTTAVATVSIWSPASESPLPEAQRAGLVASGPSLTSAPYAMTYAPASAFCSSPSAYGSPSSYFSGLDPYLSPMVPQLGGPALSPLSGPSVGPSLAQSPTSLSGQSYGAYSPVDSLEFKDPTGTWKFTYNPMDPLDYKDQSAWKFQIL
# The entries are a selection whose mix differs from that of the whole data set. At the low end of the ranking the order means little.
# Molecular target: CRX (UniProt O43186)
# Assay: DAPPL (digital affinity profiling via proximity ligation, sequencing)
# Details: 10 mM Tris-HCl pH 7.5, 50 mM NaCl, 1 mM DTT, 4% glycerol, room temperature, 30 min; GST-TFs on glutathione beads, 16-mer random dsDNA library, 0.1% …; high values mean tight binding; double strand, one strand shown; scale: fold enrichment (6-mer frequency, TF over GST control)
row,Sequence,binding signal
1,CCCCAT,1.15
2,TTTATG,1.74
3,TGGATG,1.45
4,GACATC,0.745
5,TGAAAC,0.977
6,GTATTA,2.49
7,CTGTTT,1.08
8,CGTACT,1.07
9,TCATGC,1.03
10,TTAACT,2.72
11,TATGGT,1.29
12,CCGTCC,0.901
13,TTTCGA,1.86
14,TGCTAA,1.8
15,TACACC,1.06
16,CTGCCG,0.858
17,AAGCAC,1.09
18,CTCTGC,1.2
19,AATACA,1.33
20,TTATTT,2.43

row,Sequence,binding signal
1,CATGAA,0.956
2,CGGCTT,1.95
3,GTAACA,0.85
4,ATCATG,1.21
5,TGGCTA,1.35
6,ATGTAA,1.41
7,GATTAC,3.27
8,TAGCTA,1.58
9,AACCCA,0.983
10,ATACAG,1.02
11,AATAAT,2.41
12,CTCTGG,1.35
13,CGCTCC,0.942
14,GCTTAT,2.89
15,TCGATC,1.23
16,AAGTAA,1.39
17,CTCATG,1.05
18,AACGTC,0.899
19,CGCCCG,0.85

# Taken from above:
# Under binding signal, TGGCTA has 1.35
# Under binding signal, GTATTA has 2.49
# Under binding signal, ATGTAA has 1.41
